Experimental findings from publication doi:10.1101/2020.03.16.993600 are described below.

Sequences of proteins named here, by UniProt entry; tags and fusion partners are left off.
UniProt Q96PZ2: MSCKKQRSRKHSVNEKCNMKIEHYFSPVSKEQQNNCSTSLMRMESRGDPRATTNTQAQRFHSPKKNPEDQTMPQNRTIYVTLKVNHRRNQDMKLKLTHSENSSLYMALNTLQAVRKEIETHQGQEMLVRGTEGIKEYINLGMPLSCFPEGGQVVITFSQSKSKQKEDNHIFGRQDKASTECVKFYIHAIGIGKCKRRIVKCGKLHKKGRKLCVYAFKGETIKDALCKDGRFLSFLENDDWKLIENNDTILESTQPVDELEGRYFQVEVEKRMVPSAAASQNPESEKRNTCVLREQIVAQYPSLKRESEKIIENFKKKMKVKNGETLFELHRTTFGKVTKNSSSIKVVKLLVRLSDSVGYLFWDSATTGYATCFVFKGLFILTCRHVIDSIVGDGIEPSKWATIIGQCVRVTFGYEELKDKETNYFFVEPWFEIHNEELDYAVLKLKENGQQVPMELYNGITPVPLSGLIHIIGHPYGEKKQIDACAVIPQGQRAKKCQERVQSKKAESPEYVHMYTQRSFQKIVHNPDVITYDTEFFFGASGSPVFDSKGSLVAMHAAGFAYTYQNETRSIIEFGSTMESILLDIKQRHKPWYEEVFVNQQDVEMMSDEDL

No constants are given. Whether binding was seen depends on the method and setting. In cells and extracts the contact can be indirect. Here binding means that the protein was enriched with, or labelled near, the bait; the list need not be complete.

This experiment has as its target GFP-FAM111A WT (human) (UniProt Q96PZ2). As to the kind of experiment: affinity purification with mass spectrometry.

B1: FAM111B (endogenous) (enzyme, UniProt Q6SJ93 1-734)
chain: MNSMKTEENKSFSAMEDDQRTRPEVSKDTVMKQTHADTPVDHCLSGIRKCSSTFKLKSEVNKHETALEMQNPNLNNKECCFTFTLNGNSRKLDRSVFTAYGKPSESIYSALSANDYFSERIKNQFNKNIIVYEEKTIDGHINLGMPLKCLPSDSHFKITFGQRKSSKEDGHILRQCENPNMECILFHVVAIGRTRKKIVKINELHEKGSKLCIYALKGETIEGALCKDGRFRSDIGEFEWKLKEGHKKIYGKQSMVDEVSGKVLEMDISKKKALQQKDIHKKIKQNESATDEINHQSLIQSKKKVHKPKKDGETKDVEHSREQILPPQDLSHYIKDKTRQTIPRIRNYYFCSLPRKYRQINSQVRRRPHLGRRYAINLDVQKEAINLLKNYQTLNEAIMHQYPNFKEEAQWVRKYFREEQKRMNLSPAKQFNIYKKDFGKMTANSVSVATCEQLTYYSKSVGFMQWDNNGNTGNATCFVFNGGYIFTCRHVVHLMVGKNTHPSLWPDIISKCAKVTFTYTEFCPTPDNWFSIEPWLKVSNENLDYAILKLKENGNAFPPGLWRQISPQPSTGLIYLIGHPEGQIKKIDGCTVIPLNERLKKYPNDCQDGLVDLYDTTSNVYCMFTQRSFLSEVWNTHTLSYDTCFSDGSSGSPVFNASGKLVALHTFGLFYQRGFNVHALIEFGYSMDSILCDIKKTNESLYKSLNDEKLETYDEEKGKQESSLQDHQIEPMEC
As to B1, the binding result is given as “binds”.
